Some of the results follow. Single values of this set are uncertain.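 Many melting curves are irregular; where none melted, Tm was taken as 64 °C.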

Amino acid sequences for entries named in this document (tags omitted). A change or cut given only in a name is not applied to a line headed by its entry.
UniProt Q9BXF6: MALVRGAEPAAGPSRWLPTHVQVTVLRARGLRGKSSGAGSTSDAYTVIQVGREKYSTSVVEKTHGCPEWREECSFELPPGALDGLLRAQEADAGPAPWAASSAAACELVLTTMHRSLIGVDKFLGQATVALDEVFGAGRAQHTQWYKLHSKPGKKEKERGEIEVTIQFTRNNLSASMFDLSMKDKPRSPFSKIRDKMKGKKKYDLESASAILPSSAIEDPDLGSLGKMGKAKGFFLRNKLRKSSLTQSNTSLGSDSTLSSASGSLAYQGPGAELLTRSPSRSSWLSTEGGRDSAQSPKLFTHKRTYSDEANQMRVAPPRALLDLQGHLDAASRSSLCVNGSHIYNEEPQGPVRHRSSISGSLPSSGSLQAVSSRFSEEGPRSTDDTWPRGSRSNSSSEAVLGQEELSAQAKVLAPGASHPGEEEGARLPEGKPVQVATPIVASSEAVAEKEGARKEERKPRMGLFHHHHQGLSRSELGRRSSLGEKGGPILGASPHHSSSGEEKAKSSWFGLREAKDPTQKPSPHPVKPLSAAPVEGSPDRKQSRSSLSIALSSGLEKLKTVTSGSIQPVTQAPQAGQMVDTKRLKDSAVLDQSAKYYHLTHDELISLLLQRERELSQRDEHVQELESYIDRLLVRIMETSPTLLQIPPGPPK
UniProt Q9BXV9: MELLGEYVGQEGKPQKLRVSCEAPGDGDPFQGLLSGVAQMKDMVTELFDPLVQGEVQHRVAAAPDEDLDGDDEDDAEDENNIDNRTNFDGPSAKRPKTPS
UniProt Q9BRT3: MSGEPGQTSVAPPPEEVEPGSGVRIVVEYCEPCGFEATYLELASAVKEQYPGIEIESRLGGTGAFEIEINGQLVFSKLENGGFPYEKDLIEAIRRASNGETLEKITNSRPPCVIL
UniProt Q9BVG9: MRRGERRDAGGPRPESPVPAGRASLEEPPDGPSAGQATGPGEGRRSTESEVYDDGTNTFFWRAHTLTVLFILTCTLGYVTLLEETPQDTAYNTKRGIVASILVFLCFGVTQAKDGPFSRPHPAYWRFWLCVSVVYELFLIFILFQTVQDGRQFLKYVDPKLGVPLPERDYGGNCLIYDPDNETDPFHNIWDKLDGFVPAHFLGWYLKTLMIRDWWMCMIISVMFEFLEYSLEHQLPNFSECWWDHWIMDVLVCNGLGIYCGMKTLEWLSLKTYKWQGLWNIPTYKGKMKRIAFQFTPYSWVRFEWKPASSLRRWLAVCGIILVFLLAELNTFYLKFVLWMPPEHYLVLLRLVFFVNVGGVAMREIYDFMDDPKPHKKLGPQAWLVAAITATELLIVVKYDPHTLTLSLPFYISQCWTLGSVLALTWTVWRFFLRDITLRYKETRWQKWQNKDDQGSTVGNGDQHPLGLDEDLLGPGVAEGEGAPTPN
UniProt Q9BTC0, whole entry: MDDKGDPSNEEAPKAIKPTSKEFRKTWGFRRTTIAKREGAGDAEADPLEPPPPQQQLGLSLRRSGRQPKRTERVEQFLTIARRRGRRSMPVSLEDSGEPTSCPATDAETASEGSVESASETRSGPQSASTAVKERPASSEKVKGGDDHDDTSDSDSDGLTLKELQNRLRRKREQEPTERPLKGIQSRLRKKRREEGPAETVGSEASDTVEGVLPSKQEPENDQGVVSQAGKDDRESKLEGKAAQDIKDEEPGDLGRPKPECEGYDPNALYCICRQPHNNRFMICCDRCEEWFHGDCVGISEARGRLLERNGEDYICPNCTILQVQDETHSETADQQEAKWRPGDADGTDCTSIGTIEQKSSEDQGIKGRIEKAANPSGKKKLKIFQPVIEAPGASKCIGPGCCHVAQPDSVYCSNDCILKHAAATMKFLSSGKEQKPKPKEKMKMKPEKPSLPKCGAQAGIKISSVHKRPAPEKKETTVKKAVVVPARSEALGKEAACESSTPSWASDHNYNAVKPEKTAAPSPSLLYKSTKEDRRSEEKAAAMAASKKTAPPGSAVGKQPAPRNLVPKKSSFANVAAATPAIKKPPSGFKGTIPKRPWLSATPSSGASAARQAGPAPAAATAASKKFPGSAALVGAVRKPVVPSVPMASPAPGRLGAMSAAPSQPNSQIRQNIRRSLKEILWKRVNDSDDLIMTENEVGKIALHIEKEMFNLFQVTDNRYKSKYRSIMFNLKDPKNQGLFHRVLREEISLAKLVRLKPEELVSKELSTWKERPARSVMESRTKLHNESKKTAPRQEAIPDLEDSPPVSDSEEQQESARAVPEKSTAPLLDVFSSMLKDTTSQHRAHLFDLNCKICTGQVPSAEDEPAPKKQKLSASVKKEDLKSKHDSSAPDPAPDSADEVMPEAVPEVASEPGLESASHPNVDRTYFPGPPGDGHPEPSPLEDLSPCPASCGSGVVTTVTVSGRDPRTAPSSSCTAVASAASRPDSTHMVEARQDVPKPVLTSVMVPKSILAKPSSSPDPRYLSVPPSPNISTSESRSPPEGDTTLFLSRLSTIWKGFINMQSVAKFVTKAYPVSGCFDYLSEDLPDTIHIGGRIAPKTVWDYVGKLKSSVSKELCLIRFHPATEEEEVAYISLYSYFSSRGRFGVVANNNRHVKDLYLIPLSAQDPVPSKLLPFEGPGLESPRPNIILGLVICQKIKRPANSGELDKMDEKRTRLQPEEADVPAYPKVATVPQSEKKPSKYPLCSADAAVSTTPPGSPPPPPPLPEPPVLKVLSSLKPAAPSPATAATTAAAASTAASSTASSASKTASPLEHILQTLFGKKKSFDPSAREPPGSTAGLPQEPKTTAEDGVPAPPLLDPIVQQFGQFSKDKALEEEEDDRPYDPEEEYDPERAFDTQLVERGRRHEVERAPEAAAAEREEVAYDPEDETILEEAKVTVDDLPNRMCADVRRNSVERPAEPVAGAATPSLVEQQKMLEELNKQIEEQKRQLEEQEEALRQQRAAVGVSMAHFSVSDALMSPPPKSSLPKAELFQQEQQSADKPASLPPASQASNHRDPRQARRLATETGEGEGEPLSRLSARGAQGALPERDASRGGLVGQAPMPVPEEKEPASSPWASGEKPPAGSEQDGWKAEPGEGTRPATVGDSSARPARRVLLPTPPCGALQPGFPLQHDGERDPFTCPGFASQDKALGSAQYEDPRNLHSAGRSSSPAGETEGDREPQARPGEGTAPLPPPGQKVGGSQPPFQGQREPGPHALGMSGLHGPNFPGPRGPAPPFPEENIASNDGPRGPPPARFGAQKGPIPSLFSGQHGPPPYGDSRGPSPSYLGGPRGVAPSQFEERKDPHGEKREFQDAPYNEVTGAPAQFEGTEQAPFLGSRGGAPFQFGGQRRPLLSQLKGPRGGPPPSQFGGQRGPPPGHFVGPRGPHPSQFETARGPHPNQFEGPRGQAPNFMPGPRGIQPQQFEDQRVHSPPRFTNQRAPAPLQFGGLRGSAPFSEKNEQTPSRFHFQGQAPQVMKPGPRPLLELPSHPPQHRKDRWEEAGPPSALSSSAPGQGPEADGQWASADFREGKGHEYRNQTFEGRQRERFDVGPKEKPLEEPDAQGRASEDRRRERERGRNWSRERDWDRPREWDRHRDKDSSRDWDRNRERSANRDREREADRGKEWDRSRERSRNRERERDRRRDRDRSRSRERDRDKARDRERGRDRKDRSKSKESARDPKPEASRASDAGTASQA
UniProt Q9BSJ6: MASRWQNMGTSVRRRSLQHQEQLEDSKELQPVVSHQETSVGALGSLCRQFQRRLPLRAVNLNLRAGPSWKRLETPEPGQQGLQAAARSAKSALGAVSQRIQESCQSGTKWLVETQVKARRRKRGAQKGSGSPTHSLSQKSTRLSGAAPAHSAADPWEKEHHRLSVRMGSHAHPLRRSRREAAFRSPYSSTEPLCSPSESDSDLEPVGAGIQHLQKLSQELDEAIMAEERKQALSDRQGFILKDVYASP
UniProt Q9BS18, whole entry: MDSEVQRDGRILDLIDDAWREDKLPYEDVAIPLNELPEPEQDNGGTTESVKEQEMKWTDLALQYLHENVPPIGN
UniProt Q9BVG4: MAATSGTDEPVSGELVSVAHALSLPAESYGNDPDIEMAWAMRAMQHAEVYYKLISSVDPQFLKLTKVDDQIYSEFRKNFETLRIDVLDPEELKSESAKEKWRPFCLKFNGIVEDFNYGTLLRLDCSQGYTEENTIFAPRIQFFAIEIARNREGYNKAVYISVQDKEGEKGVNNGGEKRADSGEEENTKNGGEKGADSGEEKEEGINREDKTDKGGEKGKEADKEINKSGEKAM
UniProt Q9BVA1, whole entry: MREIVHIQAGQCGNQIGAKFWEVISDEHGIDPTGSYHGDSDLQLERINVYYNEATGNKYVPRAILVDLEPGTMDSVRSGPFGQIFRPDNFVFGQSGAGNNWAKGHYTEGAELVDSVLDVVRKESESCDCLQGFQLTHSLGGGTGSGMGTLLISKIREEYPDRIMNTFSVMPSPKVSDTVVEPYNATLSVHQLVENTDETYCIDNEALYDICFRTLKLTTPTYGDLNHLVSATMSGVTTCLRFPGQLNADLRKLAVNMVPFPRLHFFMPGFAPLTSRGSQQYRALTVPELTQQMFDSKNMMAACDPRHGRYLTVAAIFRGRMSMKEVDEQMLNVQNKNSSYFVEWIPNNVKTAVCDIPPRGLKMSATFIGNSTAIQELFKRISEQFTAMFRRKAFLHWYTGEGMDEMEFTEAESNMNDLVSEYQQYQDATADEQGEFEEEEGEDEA
UniProt Q9BSF4: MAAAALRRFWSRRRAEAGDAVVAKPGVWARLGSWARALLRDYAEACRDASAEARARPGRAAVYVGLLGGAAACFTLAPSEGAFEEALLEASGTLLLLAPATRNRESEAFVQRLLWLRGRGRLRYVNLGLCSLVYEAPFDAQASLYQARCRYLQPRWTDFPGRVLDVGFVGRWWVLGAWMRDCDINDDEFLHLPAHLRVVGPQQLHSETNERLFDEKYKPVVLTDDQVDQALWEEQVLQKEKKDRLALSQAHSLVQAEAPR
UniProt Q99797: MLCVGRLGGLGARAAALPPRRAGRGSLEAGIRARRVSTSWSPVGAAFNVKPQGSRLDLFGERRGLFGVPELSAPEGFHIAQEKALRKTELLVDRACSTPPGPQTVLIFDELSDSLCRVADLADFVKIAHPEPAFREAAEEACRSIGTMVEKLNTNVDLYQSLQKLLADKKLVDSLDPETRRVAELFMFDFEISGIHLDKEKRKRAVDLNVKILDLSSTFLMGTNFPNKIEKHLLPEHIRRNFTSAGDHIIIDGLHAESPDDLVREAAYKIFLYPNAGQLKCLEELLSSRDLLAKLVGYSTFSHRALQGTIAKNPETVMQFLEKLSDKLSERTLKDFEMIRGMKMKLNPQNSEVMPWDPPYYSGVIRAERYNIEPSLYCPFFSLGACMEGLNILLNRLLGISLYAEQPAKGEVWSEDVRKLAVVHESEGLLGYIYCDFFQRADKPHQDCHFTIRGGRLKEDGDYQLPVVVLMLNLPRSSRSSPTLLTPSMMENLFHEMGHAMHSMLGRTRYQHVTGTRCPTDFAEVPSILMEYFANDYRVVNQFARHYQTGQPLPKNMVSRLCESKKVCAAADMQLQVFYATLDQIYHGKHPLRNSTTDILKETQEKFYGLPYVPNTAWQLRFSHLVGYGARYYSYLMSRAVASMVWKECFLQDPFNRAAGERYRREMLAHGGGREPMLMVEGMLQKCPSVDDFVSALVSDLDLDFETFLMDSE
UniProt Q9BQI0: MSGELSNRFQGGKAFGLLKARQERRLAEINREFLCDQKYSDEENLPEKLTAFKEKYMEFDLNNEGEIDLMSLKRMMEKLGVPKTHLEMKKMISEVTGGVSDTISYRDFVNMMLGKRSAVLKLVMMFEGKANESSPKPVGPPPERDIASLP
UniProt Q9BY42: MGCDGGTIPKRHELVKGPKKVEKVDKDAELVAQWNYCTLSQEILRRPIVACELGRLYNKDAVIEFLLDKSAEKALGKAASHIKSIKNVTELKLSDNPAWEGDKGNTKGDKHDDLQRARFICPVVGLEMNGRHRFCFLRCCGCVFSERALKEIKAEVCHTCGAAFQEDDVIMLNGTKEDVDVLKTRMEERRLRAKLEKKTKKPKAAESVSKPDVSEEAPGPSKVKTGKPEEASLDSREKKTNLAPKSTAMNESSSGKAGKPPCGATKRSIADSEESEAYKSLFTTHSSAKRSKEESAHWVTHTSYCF
UniProt Q9BVS4: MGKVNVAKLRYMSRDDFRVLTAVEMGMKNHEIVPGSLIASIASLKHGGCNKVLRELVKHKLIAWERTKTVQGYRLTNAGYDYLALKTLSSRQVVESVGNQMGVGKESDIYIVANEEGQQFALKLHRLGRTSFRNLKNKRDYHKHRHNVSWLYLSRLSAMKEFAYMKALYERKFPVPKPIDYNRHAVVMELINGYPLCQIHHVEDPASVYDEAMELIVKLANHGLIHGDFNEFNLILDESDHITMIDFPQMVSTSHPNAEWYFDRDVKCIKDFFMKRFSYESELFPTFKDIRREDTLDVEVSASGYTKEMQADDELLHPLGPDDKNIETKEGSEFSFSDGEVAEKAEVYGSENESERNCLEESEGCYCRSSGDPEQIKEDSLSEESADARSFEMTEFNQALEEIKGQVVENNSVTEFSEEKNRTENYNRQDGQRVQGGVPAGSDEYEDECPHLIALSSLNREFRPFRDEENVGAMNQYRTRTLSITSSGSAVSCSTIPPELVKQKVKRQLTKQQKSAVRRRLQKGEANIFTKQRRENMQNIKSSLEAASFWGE

Compound in the test: CCc1cnccc1C(=O)Nc1cc2c(cc1F)NC(=O)CC2
In words: melting temperature shift (DMSO Tm minus MBE1-treated Tm) in cellular thermal proteome profiling; higher = less thermal stabilization by MBE1 (negative = stabilized by MBE1). The note with it: A375; MBE1 concentration: 100 nM.
Consider TRMT61B (UniProt Q9BVS5), for which the melting temperature shift is -3.17 °C.
The result for UniProt Q9BY43 reads -3.14 °C.
The result for RAB11FIP5 (UniProt Q9BXF6) reads -0.464 °C.
The result for NCAPG (UniProt Q9BPX3) reads -0.725 °C; that for UniProt Q9BXV9, -3.7 °C; that for NUP58 (UniProt Q9BVL2), -0.299 °C.
With MIEN1 (UniProt Q9BRT3), the melting temperature shift is -0.366 °C.
The figure for UniProt Q9BV29 is 1.87 °C.
The result for UniProt Q9BRJ7 reads -0.572 °C; that for SEC11C (UniProt Q9BY50), -1.22 °C.
The result for PHB2 (UniProt Q99623) reads -2.93 °C; that for UniProt Q9BWQ6, -0.0886 °C; that for CORO1B (UniProt Q9BR76), 0.44 °C.
Take RTKN (UniProt Q9BST9): the melting temperature shift was -0.723 °C.
The figure for PTDSS2 (UniProt Q9BVG9) is -0.731 °C; for GINS4 (UniProt Q9BRT9) it is -0.189 °C.
The figure for DIDO1 (UniProt Q9BTC0) is -0.871 °C.
The figure for UniProt Q9BSJ6 is -3.77 °C.
In the case of UniProt Q9BS18, the melting temperature shift is -6.16 °C.
The result for UniProt Q9BVG4 reads 0.0977 °C; that for UniProt Q9BVA1, -1.06 °C.
The figure for C19ORF52 (UniProt Q9BSF4) is -0.215 °C.
For PLIN2 (UniProt Q99541), the melting temperature shift is -0.538 °C.
Consider HNRNPAB (UniProt Q99729), for which the melting temperature shift was -2.3 °C.
As to MIPEP (UniProt Q99797), the melting temperature shift was 0.348 °C.
As for TBC1D10A (UniProt Q9BXI6), the melting temperature shift amounted to 1.95 °C.
Regarding SLC29A1 (UniProt Q99808), the melting temperature shift is -2.16 °C.
As to UniProt Q9BSK2, the melting temperature shift came to 2.6 °C.
The result for AIF1L (UniProt Q9BQI0) reads -2.06 °C; that for UniProt Q9BY89, -0.687 °C.
The result for RTFDC1 (UniProt Q9BY42) reads 0.318 °C; that for MGME1 (UniProt Q9BQP7), -1.15 °C.
The result for UniProt Q9BVS4 reads -0.44 °C.

The values above are taken from the supplement of paper PMC12595434, “Development of retinoid nuclear receptor pathway antagonists through targeting aldehyde dehydrogenase 1A3” (iScience, 2025).
